Experiment [1] has as its target T1, Flag-tagged full-length USP36 (wild type) (human) (UniProt Q9P275).
T1 sequence: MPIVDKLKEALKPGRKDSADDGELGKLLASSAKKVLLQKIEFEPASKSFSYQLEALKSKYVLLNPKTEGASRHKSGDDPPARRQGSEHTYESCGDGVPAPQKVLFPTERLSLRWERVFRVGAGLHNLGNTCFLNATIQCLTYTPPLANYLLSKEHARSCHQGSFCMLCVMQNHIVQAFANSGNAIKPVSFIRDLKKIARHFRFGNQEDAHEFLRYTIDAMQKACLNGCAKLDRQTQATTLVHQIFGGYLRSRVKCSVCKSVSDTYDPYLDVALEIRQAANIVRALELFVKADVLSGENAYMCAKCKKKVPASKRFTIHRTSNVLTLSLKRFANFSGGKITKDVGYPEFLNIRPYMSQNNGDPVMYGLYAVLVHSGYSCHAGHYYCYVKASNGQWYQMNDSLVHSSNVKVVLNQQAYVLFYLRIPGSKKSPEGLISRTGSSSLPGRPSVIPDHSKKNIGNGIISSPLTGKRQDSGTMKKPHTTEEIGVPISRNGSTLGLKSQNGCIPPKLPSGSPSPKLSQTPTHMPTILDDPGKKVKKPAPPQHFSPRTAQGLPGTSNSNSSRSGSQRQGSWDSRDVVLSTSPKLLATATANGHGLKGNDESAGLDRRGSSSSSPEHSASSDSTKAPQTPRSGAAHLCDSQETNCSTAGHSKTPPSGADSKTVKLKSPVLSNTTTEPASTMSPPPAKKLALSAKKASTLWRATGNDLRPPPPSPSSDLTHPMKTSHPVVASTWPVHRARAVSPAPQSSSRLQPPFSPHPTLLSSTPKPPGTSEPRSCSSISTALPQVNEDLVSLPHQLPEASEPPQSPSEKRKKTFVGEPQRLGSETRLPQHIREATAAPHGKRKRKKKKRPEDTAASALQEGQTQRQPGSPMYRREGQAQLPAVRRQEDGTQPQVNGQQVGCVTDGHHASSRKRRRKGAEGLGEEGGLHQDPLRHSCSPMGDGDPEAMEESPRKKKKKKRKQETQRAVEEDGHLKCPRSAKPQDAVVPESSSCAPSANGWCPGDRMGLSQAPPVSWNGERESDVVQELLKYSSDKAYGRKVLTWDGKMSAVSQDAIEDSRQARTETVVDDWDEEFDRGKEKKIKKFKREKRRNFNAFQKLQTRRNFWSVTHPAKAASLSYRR
The experiment is described as follows: co-IP; anti-Flag immunoprecipitation from lysates of transfected 293, HeLa or H1299 cells (NP-40 lysis buffer), immunoblot. (In western blotting, separated proteins are transferred to a membrane and probed.)

For experiment [2], the target named is T1, Flag-tagged full-length USP36 (wild type) (human). As to the kind of experiment: condition: only with 100 μg/ml RNase A and 100 U/ml RNase T1; co-IP; anti-Flag immunoprecipitation in the presence of 100 μg/ml RNase A and 100 U/ml RNase T1; 293 and HeLa cells transfected with Flag-USP36; cells of Supplementary Figures S2C, D not told.
The target in experiment [3] is T2, GST-fused C-terminus of USP36 (GST-USP36^801-1121) (human) (UniProt Q9P275).
T2 sequence: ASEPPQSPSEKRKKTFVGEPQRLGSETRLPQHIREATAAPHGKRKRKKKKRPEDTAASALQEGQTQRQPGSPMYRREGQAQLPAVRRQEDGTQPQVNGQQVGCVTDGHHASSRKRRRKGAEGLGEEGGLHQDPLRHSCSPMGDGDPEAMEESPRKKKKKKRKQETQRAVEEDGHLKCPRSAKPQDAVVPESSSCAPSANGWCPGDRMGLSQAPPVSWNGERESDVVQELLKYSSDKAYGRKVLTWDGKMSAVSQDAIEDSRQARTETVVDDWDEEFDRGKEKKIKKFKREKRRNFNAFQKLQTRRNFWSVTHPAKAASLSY
As to the kind of experiment: pull-down; GST fusion or GST alone (200 ng) on glutathione-Sepharose 4B beads, purified His-tagged protein (200 ng) in solution; 50 mM Tris-HCl 7.5, 5 mM MgCl2, 100 mM NaCl, 10% glycerol, 0.5 mg/ml BSA, 5 mM β-mercaptoethanol; 45 min, room temperature; immunoblot; both purified.

These are yes or no findings as the source states them, for the method shown. For part of these data: Binding can be weak; no strength is given. Tags and fused reporters may be left off the sequences shown. For part of these data: Binding seen in cells or lysates may run through a third protein.

Consider RPS27a (human (endogenous in 293)), for which the values for the binding result in experiment [1] and in experiment [2] were “binds” and “no binding”, respectively.

“recombinant His-tagged Lasso domain of EXOSC10 (human) (domain or fragment)”: the binding entry in experiment [3] is “binds”.

The values above are taken from article PMC10164564.
